{
  "source": "patent US5232933A",
  "about": "“Method for treatment of neurodegenerative diseases” (R. J. Reynolds Tobacco Company, priority 1992, dated 1993)",
  "tested_on": "synaptosomes from the striatal area of rat brain",
  "test": "[3H]-dopamine release from rat striatal synaptosomes",
  "format": "biochemical, Sprague-Dawley rats",
  "conditions": "0.2 ml of a 20 μM solution of ligand; relative to equal concentration of (S)-(-)-nicotine",
  "note": "The name of at least one read-out is uncertain.",
  "data": [
    {"molecule": "c1ccc(C2CCCN2)nc1", "note": "(racemic) [alpha-nornicotine]", "values": [
      {"measurement": "Dopamine Release", "result": "20 Percent release relative to (S"}
    ]}
  ]
}
